No constants are given. Whether binding was seen depends on the method and setting. Binding seen in cells or lysates may run through a third protein. Some results given as binding are weak or reduced against the parent protein; the word gives no strength.
Biological target: β-amyloid precursor protein (APP) (rat (endogenous in PC12)) (UniProt P08592)
Test: co-IP; PC12 cells lysed with CelLytic M Cell Lysis Reagent and protease inhibitor cocktail; equal amounts of lysate incubated with rabbit IgG, mIgG, APP antibodies (22C11, 369), TrkA antibodies (1-3) or p75NTR antibodies (1-2) and rProtein A-sepharose beads; Western blotting

Chains of the proteins cited; added tags and fusions are not shown. Residues count along the entry.
UniProt P08592, residues 18-770: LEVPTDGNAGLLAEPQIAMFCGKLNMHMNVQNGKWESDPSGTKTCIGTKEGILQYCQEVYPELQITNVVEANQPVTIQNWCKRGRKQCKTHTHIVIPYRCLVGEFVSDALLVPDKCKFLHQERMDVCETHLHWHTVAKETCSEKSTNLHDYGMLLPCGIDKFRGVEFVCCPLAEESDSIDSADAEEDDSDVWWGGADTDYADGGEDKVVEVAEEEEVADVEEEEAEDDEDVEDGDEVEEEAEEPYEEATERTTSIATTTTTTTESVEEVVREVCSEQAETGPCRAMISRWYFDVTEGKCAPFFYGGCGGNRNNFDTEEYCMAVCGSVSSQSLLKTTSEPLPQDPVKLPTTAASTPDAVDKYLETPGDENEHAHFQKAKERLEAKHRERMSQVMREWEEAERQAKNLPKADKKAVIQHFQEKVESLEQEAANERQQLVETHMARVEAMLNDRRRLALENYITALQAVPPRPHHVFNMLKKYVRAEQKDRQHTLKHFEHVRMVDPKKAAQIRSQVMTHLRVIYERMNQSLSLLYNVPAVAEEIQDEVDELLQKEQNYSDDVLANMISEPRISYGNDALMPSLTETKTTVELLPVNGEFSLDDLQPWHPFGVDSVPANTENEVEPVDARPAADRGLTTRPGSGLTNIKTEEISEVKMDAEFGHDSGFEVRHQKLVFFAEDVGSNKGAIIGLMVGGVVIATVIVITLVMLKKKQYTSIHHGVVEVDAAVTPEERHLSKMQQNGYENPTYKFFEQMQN
UniProt P35739, residues 33-799: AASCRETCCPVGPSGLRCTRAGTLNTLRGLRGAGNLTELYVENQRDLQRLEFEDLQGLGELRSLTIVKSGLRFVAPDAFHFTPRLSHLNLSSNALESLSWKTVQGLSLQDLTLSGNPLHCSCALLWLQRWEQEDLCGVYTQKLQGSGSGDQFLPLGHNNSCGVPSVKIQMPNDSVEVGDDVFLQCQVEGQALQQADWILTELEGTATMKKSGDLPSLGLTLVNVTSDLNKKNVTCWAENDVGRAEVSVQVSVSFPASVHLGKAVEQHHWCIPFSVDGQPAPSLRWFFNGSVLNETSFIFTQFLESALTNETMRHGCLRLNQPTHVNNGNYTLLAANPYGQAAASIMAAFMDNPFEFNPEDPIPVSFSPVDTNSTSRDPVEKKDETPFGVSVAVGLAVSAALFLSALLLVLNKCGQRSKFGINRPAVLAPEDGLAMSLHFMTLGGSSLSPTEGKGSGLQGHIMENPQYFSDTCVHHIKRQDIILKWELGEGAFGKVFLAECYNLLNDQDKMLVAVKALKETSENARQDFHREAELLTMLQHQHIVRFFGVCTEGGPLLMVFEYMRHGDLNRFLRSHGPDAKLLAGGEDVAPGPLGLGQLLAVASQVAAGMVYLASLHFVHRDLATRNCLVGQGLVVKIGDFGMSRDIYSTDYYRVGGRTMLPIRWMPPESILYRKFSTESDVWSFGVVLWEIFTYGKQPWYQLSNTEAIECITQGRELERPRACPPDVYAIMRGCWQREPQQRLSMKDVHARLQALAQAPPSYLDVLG
UniProt P07174, residues 30-425: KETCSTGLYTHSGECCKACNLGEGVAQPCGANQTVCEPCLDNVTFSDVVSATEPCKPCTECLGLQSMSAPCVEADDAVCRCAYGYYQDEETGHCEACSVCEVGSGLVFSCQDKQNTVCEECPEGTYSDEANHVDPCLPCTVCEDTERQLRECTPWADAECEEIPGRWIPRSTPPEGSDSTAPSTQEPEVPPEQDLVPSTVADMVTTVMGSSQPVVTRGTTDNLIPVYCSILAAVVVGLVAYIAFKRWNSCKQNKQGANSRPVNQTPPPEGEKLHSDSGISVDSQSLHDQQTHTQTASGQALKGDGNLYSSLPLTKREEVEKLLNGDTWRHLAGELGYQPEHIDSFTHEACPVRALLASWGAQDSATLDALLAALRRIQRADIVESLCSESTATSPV

| binding | Substance |
| --- | --- |
| binds | TrkA (from UniProt P35739 33-799) (receptor) |
| binds | p75NTR (from UniProt P07174 30-425) (receptor) |

Source: PMC3815101
